Among all 300,000 compounds or so, about 3,700 (1.2%) were called active. Inconclusive means that the source gave no clear call. Such entries were picked first, then a sample of the others. Calls follow the shape of the full dose curve; tested in HEK293 cells. Potencies beside an inconclusive call are fits to weak or partial responses and may not hold up.
Assay: qHTS for Inhibitors of binding or entry into cells for Lassa Virus; also: nearly all actives have a fitted effect of over 50% in size
Settings: Lassa virus pseudotype entry inhibition, cell reporter; series mostly up to 37.9 µM
Potency is read from the fitted curve at half-maximal effect.

Compound | Potency
COc1ccccc1CN1CC(C(=O)NCc2cc(C(C)C)no2)CCC1=O (centres undefined) | inactive
Cc1cc(C)c(NC(=S)N(CCN(C)C)C(C)c2cccnc2)c(C)c1 (centres undefined) | inconclusive: 0.708 µM [inhibitor, partial curve, poor fit]
O=C(O)c1ccc(Cl)c(S(=O)(=O)Nc2ccccc2N2CCOCC2)c1 | inactive
C#CCSc1nnc(-c2ccc(OC)cc2)o1 | inactive
O=C(CSc1nnnn1-c1ccc2c(c1)OCCO2)c1cccc2c1OCCO2 | inactive
COc1ccccc1C(=O)NCC(c1cccs1)N1CCc2ccccc21 (centres undefined) | inactive
CCOC(=O)c1sc2ncn(CC(=O)Nc3cc(C)cc(C)c3)c(=O)c2c1C | inconclusive: 14.1 µM [activator, single point]
Cc1nn(-c2ccccc2)c(N)c1-c1ccccc1 | inconclusive: 22.4 µM [inhibitor, single point]
CC(C)CNC(=O)c1cccc(NC(=O)Cc2ccc(Br)cc2)c1 | inconclusive: 4.47 µM [inhibitor, single point]
Cc1cc(C)cc(N(CCC#N)C(=O)COC(=O)CNC(=O)c2sc3ccccc3c2Cl)c1 | inconclusive: 20 µM [inhibitor, single point]
c1ccc(OCCCN2CCCC2)cc1 | inactive
COc1ccc(NC(=S)Nc2ccccn2)cc1 | inconclusive: 2.82 µM [activator, partial curve]
CCOc1ccc(NC(=O)CCc2nnc3ccc(N4CCC(C)CC4)nn23)cc1 | inconclusive: 7.08 µM [inhibitor, partial curve, poor fit]
CCCCn1c(N)c(N(CCOC)C(=O)CCCn2c(=O)oc3ccccc32)c(=O)[nH]c1=O | inactive
FC(F)(F)c1cnc(N2CCN(C(=S)NCc3ccccc3)CC2)c(Cl)c1 | inconclusive: 35.5 µM [inhibitor, single point]
CC(=O)C1=C(C)OC(N)=C(C#N)C1c1cccc([N+](=O)[O-])c1 (centres undefined) | inactive
CCOc1cccc(NC(=O)C2CC(=O)N(C)C(=Nc3cccc(F)c3)S2)c1 (centres undefined) | inconclusive: 16.4 µM [inhibitor, single point]
Cc1cc(C)cc(-n2c(/C=C/c3cccc(F)c3)nc3ccccc3c2=O)c1 | inconclusive: 35.5 µM [activator, single point]
Cc1cccc(CN2C(=O)NC(c3ccccc3)(c3ccccc3)C2=O)c1 | inconclusive: 4.47 µM [inhibitor, partial curve]
CCOP(=O)(c1ccccc1)c1nc(-c2ccccc2Cl)oc1N1CCCCC1 (centres undefined) | inconclusive: 29.1 µM [inhibitor, single point]
O=C(c1cccc(C(=O)N(c2ccccn2)C2CCCCC2)c1)N(c1ccccn1)C1CCCCC1 | inconclusive: 7.08 µM [inhibitor, partial curve]
O=C(Nc1ccc(N2CCOCC2)cc1)c1ccc2ncsc2c1 | inconclusive: 35.5 µM [inhibitor, single point]
O=C(NC1CCCC1)C(c1ccc(O)cc1)N(CC1CCCO1)C(=O)C1COc2ccccc2O1 (centres undefined) | inconclusive: 7.3 µM [inhibitor, partial curve]

Compound | Potency
COc1ccc(CCNc2oc(COc3ccc(F)cc3)nc2C#N)cc1 | inconclusive: 20 µM [inhibitor, partial curve, poor fit]
COc1ccc(CCn2c(O)c(/C=N/N3CCCCC3)c(=O)[nH]c2=O)cc1OC | inconclusive: 35.5 µM [inhibitor, single point]
CCC(C)N1C(=O)S/C(=C/c2ccc3c(c2)n(C)c(=O)n3C)C1=O (centres undefined) | inconclusive: 35.5 µM [inhibitor, single point]
COc1ccc(CNC(=O)c2ccc(NC(=O)N3CCCCc4ccccc43)cc2)c(OC)c1 | inconclusive: 35.5 µM [inhibitor, single point]
CCOC(=O)c1sc2nc(-c3ccccc3)ccc2c1N | inconclusive: 0.092 µM [activator, full curve, poor fit]
CCC(C(=O)NCc1ccc(F)cc1)N(Cc1cccs1)C(=O)c1snc(C(N)=O)c1N (centres undefined) | inconclusive: 35.5 µM [inhibitor, single point]
O=C(NCc1cccc(C(F)(F)F)c1)C1CCN(c2ncccn2)CC1 | inactive
Cc1ccc2oc(=O)c3cc(C(=O)NCc4ccc(Cl)cc4)sc3c2c1 | inconclusive: 1.12 µM [activator, full curve, poor fit]
C/C(=N\NC(=O)c1ccc(N)cc1)C1CC1 | inconclusive: 8.91 µM [activator, partial curve, poor fit]
C=CCN1C(=O)C2(NC(=O)c3ccccc3N2)c2ccccc21 (centres undefined) | inconclusive: 8.91 µM [inhibitor, partial curve, poor fit]
COc1cc(NS(=O)(=O)c2ccc(NS(=O)(=O)c3ccccc3)cc2)nc(OC)n1 | inconclusive: 3.98 µM [activator, partial curve, poor fit]
Cc1ccc(CN2CCc3nc(N4CCN(c5ccccc5F)CC4)ncc3C2)s1 | inactive
CC1(C)Cc2ccccc2C(/C(=N/O)C(N)=O)=N1 | inactive
COc1ccc(NC(=O)C2CCCN(S(=O)(=O)c3ccc(-n4cnnn4)cc3)C2)cc1 (centres undefined) | inactive
O=C(Nc1cccc(C(=O)N2CCCC2)c1)C1CCCC1 | inconclusive: 0.499 µM [inhibitor, full curve, poor fit]
COc1ccccc1-c1nnc2sc(-c3ccc(N(C)C)cc3)nn12 | inconclusive: 0.794 µM [inhibitor, full curve, poor fit]
COc1ccc(CCC(=O)NNC(=O)Nc2ccc(C(C)=O)cc2)cc1 | active: 0.708 µM
CC(C)C(=O)N1CCN(c2ccccc2NC(=O)COc2ccccc2)CC1 | inconclusive: 7.08 µM [inhibitor, partial curve, poor fit]
CC(Oc1ccc(F)cc1)c1nnc(SCC(=O)N(c2ccccc2)C2CCS(=O)(=O)C2)o1 (centres undefined) | inconclusive: 5.62 µM [activator, single point]
CC(C)(C)OC(=O)NCCc1nnc(SCc2ccccc2Cl)o1 | inconclusive: 9.2 µM [inhibitor, partial curve]
CCOC(=O)c1c(-c2ccc(C)cc2)csc1NC(=S)NC(=O)c1ccccc1 | active: 2.06 µM
Cc1ccc2nc(C3CCN(S(=O)(=O)c4ccc5ccccc5c4)CC3)[nH]c2c1 | inconclusive: 32.6 µM [inhibitor, single point]
O=c1[nH]nc(SCCS(=O)(=O)c2ccc(F)cc2)n1-c1ccccc1 | inactive

Compound | Potency
CCNC(=O)c1ccc2c(c1)C1C3CCC(C3)C1C(c1ccccc1)N2 (centres undefined) | inconclusive: 15.8 µM [inhibitor, single point]
CCOc1ccc(CCn2c(-c3ccco3)nc3ccccc3c2=O)cc1OCC | active: 6.51 µM
CN(Cc1ccccc1)Cc1nc2c(c(=O)n(C)c(=O)n2C)n1Cc1ccc(Cl)cc1 | inconclusive: 20.6 µM [inhibitor, partial curve, poor fit]
COc1ccc(-c2cc(=O)c3cc(OCC(=O)OC(C)C)ccc3o2)cc1 | inconclusive: 3.55 µM [inhibitor, single point]
CC(=O)C1CCC2C3CCC4=CC(=O)C=CC4(C)C3C(=O)CC12C (centres undefined) | inactive
O=C(NCc1ccco1)c1ccc(N2CCCC2=O)cc1 | inactive
CC(=O)c1ccc(NC(=O)Nc2ccc3c(c2)nc(C)n3C)cc1 | inactive
CCCNC(=O)C(=O)Nc1ccc2c(c1)N(S(=O)(=O)c1cccs1)CCC2 | inconclusive: 14.1 µM [inhibitor, partial curve, poor fit]
CCOC(=O)c1c(C)nc2c(c1-c1ccc(Cl)cc1)C(=O)CC(C)(C)C2 | inconclusive: 1.26 µM [inhibitor, partial curve, poor fit]
Cc1cc(=O)nc2c3ccccc3n(CC(=O)NCCCN3CCCC3=O)n12 | inactive
CCCOC(=O)C1C2C=CC(C3CC23)C1C(=O)OCC(=O)c1ccccc1 (centres undefined) | inconclusive: 29.1 µM [inhibitor, single point]
CC(=O)Nc1ccc(N=NN2CCOCC2)cc1 | inactive
CC(=O)c1ccc(OCCCC(=O)N2CCN(S(=O)(=O)c3ccc(C(C)C)cc3)CC2)cc1 | inconclusive: 35.5 µM [inhibitor, single point]
CC(C)CN1CCN(Cc2ccc3ncccc3c2)CC1CCO (centres undefined) | inconclusive: 1.26 µM [inhibitor, single point]
COc1ccccc1NC(=O)C1CCN(S(=O)(=O)c2ccc3[nH]c4c(c3c2)CCCCC4)CC1 | inactive
Cc1cc(C)c(NC(=O)CCn2c(=O)c3cccn3c3ccccc32)c(C)c1 | inconclusive: 25.1 µM [inhibitor, single point]
O=C(NC(=S)NC1CCCCC1)c1ccc(F)cc1 | inconclusive: 11.2 µM [inhibitor, single point]
CCOC(=O)c1cnc(SCC(=O)c2ccc(C)cc2)nc1N | inactive
Cc1nc(NC(=O)c2c(-c3ccccc3)c(-c3ccccc3)nn(C)c2=O)sc1C | inactive
Cc1cccc(NC(=S)NCC(c2cccnc2)N2CCOCC2)c1C (centres undefined) | inactive
Cc1cc(NC(=O)CSc2nc3c(cc2C#N)CCC3)no1 | inconclusive: 4.11 µM [inhibitor, full curve]
CC(Nc1ccc2c(c1)OCCO2)C(=O)N1c2ccccc2CC1C (centres undefined) | active: 8.91 µM
N#Cc1cc(C(=O)c2ccccc2O)cn(-c2ccc(Cl)cc2)c1=O | inconclusive: 25.1 µM [inhibitor, partial curve, poor fit]

Rewritten with tabs: 13 of the compounds above.
Compound	Potency
CCCOC(=O)C1C2C=CC(C3CC23)C1C(=O)OCC(=O)c1ccccc1 (centres undefined)	inconclusive: 29.1 µM [inhibitor, single point]
CC(=O)Nc1ccc(N=NN2CCOCC2)cc1	inactive
CC(=O)c1ccc(OCCCC(=O)N2CCN(S(=O)(=O)c3ccc(C(C)C)cc3)CC2)cc1	inconclusive: 35.5 µM [inhibitor, single point]
CC(C)CN1CCN(Cc2ccc3ncccc3c2)CC1CCO (centres undefined)	inconclusive: 1.26 µM [inhibitor, single point]
COc1ccccc1NC(=O)C1CCN(S(=O)(=O)c2ccc3[nH]c4c(c3c2)CCCCC4)CC1	inactive
Cc1cc(C)c(NC(=O)CCn2c(=O)c3cccn3c3ccccc32)c(C)c1	inconclusive: 25.1 µM [inhibitor, single point]
O=C(NC(=S)NC1CCCCC1)c1ccc(F)cc1	inconclusive: 11.2 µM [inhibitor, single point]
CCOC(=O)c1cnc(SCC(=O)c2ccc(C)cc2)nc1N	inactive
Cc1nc(NC(=O)c2c(-c3ccccc3)c(-c3ccccc3)nn(C)c2=O)sc1C	inactive
Cc1cccc(NC(=S)NCC(c2cccnc2)N2CCOCC2)c1C (centres undefined)	inactive
Cc1cc(NC(=O)CSc2nc3c(cc2C#N)CCC3)no1	inconclusive: 4.11 µM [inhibitor, full curve]
CC(Nc1ccc2c(c1)OCCO2)C(=O)N1c2ccccc2CC1C (centres undefined)	active: 8.91 µM
N#Cc1cc(C(=O)c2ccccc2O)cn(-c2ccc(Cl)cc2)c1=O	inconclusive: 25.1 µM [inhibitor, partial curve, poor fit]
